This note sets out measurements from patent publication US20120093850A1.

The chains behind the UniProt entries cited, without tags or fusion partners. Where a name states a change or a piece, a line headed by the entry shows the natural chain unless it says otherwise.
UniProt Q2FKG1: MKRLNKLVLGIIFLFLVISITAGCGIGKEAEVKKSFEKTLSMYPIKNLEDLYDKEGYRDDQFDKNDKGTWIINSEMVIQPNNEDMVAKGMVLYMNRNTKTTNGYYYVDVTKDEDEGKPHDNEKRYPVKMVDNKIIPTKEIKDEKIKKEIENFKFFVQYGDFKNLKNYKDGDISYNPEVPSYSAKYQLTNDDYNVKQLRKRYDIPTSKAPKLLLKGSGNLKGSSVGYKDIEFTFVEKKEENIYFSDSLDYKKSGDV

These are yes or no findings as the source states them, for the method shown. Some entries that bind do so weakly or less than the wild type.

The assay deals with recombinant tag-free Sta011 (Staphylococcus aureus (NCTC 8325 strain)) (UniProt Q2FKG1). Kind of assay: native gel, self-oligomerisation.

In the case of “recombinant tag-free Sta011 (from UniProt Q2FKG1 24-255)”, the binding result is given as “binds”.
